Where two headings read alike, the source gives them in different places. At least one compound was matched to its structure with a doubt left.
Biological target: T1, AglH (M. jannaschii) (Methanocaldococcus jannaschii, UniProt Q58513)
T1 sequence (Q58513 1-301): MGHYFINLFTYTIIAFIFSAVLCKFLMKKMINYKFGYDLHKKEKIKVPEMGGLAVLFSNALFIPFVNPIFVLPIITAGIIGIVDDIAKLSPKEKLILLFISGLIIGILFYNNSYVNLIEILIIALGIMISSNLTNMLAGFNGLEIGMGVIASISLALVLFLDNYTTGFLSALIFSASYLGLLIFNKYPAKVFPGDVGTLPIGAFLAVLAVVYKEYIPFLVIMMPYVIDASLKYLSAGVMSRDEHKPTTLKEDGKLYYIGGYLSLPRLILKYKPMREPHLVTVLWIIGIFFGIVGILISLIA
Test: AglH assay
Settings: read-out: IC50 AglH (M. jannaschii)

SMILES: CO[C@H]1[C@@H](OC)[C@H](n2ccc(=O)[nH]c2=O)O[C@@H]1[C@@H](O[C@H]1OC(C(=O)N[C@H]2CCCCNC2=O)=C[C@H](O)[C@@H]1O)C(N)=O [O-Methyl capuramycin, reference compound]
- IC50: 2.5 µM
- IC50 (listed as OM-CAP): 13.5 µM

Reference: US12570684B2 (UNIVERSITY OF TENNESSEE RESEARCH FOUNDATION, priority 2020, dated 2026)
